{
  "source": "the supplement of paper PMC8256030",
  "note": "Several values for one entry are separate records, joined by “and”; a condition that tells them apart may be missing. Equal entries are not always repeated. The list shows a part of the results. This data set is noisy: repeats of one test often differ as much as different tests do.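 HEK293T cells were given each compound shortly before transfection with a reporter in which red mCherry is followed by the SARS-CoV-2 frameshift element and then GFP in the −1 frame, so GFP appears only after frameshifting.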",
  "data": [
    {"tested_on": "HEK293T", "experiment": "percent viability (nuclei count) relative to control; higher = more viable cells", "details": "10 µM; 24 h", "values": [
      {"smiles": "Cc1cc(C)nc(NS(=O)(=O)c2ccc(N)cc2)n1", "note": "[sulfadimidine]", "percent viability": "186%"},
      {"smiles": "CCOC(=O)[C@H](CCc1ccccc1)N[C@@H](C)C(=O)N1CC2(C[C@H]1C(=O)O)SCCS2", "note": "[spirapril]", "percent viability": "166%"},
      {"smiles": "CCCN(CCC)S(=O)(=O)c1ccc(C)cc1", "note": "[ditolamide]", "percent viability": "159%"},
      {"smiles": "CCC1(CC)COC(=O)NC1=O", "note": "[diethadione]", "percent viability": "334%"},
      {"smiles": "O=C(O)CCn1c2c(c3ccccc31)C[C@H](NS(=O)(=O)c1ccc(F)cc1)CC2", "note": "[ramatroban]", "percent viability": "173%"},
      {"smiles": "C[C@]12C=CC(=O)C=C1CC[C@@H]1[C@@H]2[C@@H](O)C[C@@]2(C)[C@H]1CC[C@]2(O)C(=O)COP(=O)(O)O", "percent viability": "192%"},
      {"smiles": "CCc1cccc2c3c([nH]c12)C(CC)(CC(=O)O)OCC3", "note": "(stereo not given) [etodolac]", "percent viability": "157%"},
      {"smiles": "CCCCCCCCCCCCC[N+](C)(C)Cc1ccccc1", "percent viability": "197%"},
      {"smiles": "CO[C@@H]1[C@@H](O[C@@H]2O[C@H](C)[C@@H](O[C@H]3C[C@@](C)(O)[C@@H](OC(=O)CC(C)C)[C@H](C)O3)[C@H](N(C)C)[C@H]2O)[C@@H](CC=O)C[C@@H](C)[C@@H](O)/C=C/C=C/C[C@@H](C)OC(=O)C[C@H]1OC(C)=O", "note": "[josamycin]", "percent viability": "168%"},
      {"smiles": "OCC(O)COc1ccc(Cl)cc1", "note": "(stereo not given) [chlorphenesin]", "percent viability": "52%"},
      {"smiles": "CC(C)NCC(O)COc1ccc(CCOCC2CC2)cc1", "note": "(stereo not given)", "percent viability": "173%"},
      {"smiles": "CCOC(=O)OC(C)OC1=C(C(=O)Nc2ccccn2)N(C)S(=O)(=O)c2ccccc21", "note": "(stereo not given) [ampiroxicam]", "percent viability": "268%"},
      {"smiles": "CN(C)C(=N)NC(=N)N", "note": "[Metformin]", "percent viability": "262%"},
      {"smiles": "O=C(O)C1=C(CSc2nnnn2CS(=O)(=O)O)CS[C@@H]2[C@H](NC(=O)[C@H](O)c3ccccc3)C(=O)N12", "note": "[Monocid]", "percent viability": "185%"},
      {"smiles": "CCCN(CCC)S(=O)(=O)c1ccc(C(=O)O)cc1", "note": "[probenecid]", "percent viability": "160%"},
      {"smiles": "COc1nc(N)nc2c1ncn2[C@@H]1O[C@H](CO)[C@@H](O)[C@@H]1O", "percent viability": "101%"},
      {"smiles": "CN(C)CCC(c1ccc(Br)cc1)c1ccccn1", "note": "(stereo not given)", "percent viability": "58.3%"},
      {"smiles": "CNS(=O)(=O)CCc1ccc2[nH]cc(C3CCN(C)CC3)c2c1", "note": "[naratriptan]", "percent viability": "273%"},
      {"smiles": "CNC1CCCN(c2c(F)cc3c(=O)c(C(=O)O)cn(C4CC4)c3c2OC)C1", "note": "(stereo not given) [balofloxacin]", "percent viability": "175%"},
      {"smiles": "C[C@H]1C[C@H]2[C@@H]3C[C@H](F)C4=CC(=O)C=C[C@]4(C)[C@@]3(F)[C@@H](O)C[C@]2(C)[C@@]1(O)C(=O)CO", "note": "[diflorasone]", "percent viability": "169%"},
      {"smiles": "CCCCN1CCCC1C(=O)Nc1c(C)cc(C)cc1C", "note": "(stereo not given) [bumecaine]", "percent viability": "202%"},
      {"smiles": "NC(=O)c1ncn([C@@H]2O[C@H](CO)[C@@H](O)[C@H]2O)c1N", "note": "[acadesine]", "percent viability": "214%"},
      {"smiles": "C=CC[C@@H]1/C=C(\\C)C[C@H](C)C[C@H](OC)[C@H]2O[C@@](O)(C(=O)C(=O)N3CCCC[C@H]3C(=O)O[C@H](/C(C)=C/[C@@H]3CC[C@@H](O)[C@H](OC)C3)[C@H](C)[C@@H](O)CC1=O)[C@H](C)C[C@@H]2OC", "percent viability": "104%"},
      {"smiles": "CCN1C(=O)NC(c2ccccc2)C1=O", "note": "(stereo not given) [ethotoin]", "percent viability": "164%"},
      {"smiles": "O=C1c2ccccc2C(=O)C1c1ccccc1", "note": "[phenindione]", "percent viability": "422%"},
      {"smiles": "CN1[C@@H]2CC[C@H]1C[C@@H](OC(=O)c1c[nH]c3ccccc13)C2", "note": "[tropisetron]", "percent viability": "135%"},
      {"smiles": "C1=CN2CC(c3cccs3)N=C2S1", "note": "(stereo not given) [antienite]", "percent viability": "189%"},
      {"smiles": "CC(C)(C)NCC(O)CSc1nc(-c2ccc(C(N)=O)s2)cs1", "note": "(stereo not given) [arotinolol]", "percent viability": "131%"},
      {"smiles": "CO[C@H]1C[C@@H]2CC[C@@H](C)[C@@](O)(O2)C(=O)C(=O)N2CCCC[C@H]2C(=O)O[C@H]([C@H](C)C[C@@H]2CC[C@@H](OC(=O)C(C)(CO)CO)[C@H](OC)C2)CC(=O)[C@H](C)/C=C(\\C)[C@@H](O)[C@@H](OC)C(=O)[C@H](C)C[C@H](C)/C=C/C=C/C=C/1C", "note": "[Torisel]", "percent viability": "99.3%"},
      {"smiles": "Cc1c(CN2CCOC(c3ccccc3)C2C)c(=O)n(-c2ccccc2)n1C", "note": "(stereo not given) [morazone]", "percent viability": "286%"},
      {"smiles": "Clc1ccc(CO/N=C(\\Cn2ccnc2)c2ccc(Cl)cc2Cl)c(Cl)c1", "percent viability": "272%"},
      {"smiles": "CC[C@H]1OC(=O)[C@H](C)[C@@H](O[C@H]2C[C@@](C)(OC)[C@@H](O)[C@H](C)O2)[C@H](C)[C@@H](O[C@@H]2O[C@H](C)C[C@H](N(C)C)[C@H]2O)[C@](C)(O)C[C@@H](C)/C(=N/OC)[C@H](C)[C@@H](O)[C@]1(C)O", "note": "[lexithromycin]", "percent viability": "119%"},
      {"smiles": "Cc1c(OCC(F)(F)F)ccnc1C[S+]([O-])c1nc2ccccc2[nH]1", "note": "(stereo not given) [lansoprazole]", "percent viability": "328%"},
      {"smiles": "CCCCC(C)(O)C/C=C/[C@H]1[C@H](O)CC(=O)[C@@H]1CCCCCCC(=O)OC", "note": "(stereo not given in full) [Cytotec]", "percent viability": "237%"},
      {"smiles": "CC(=O)OCC1OC([S-])C(OC(C)=O)C(OC(C)=O)C1OC(C)=O.CC[PH+](CC)CC.[Au+]", "note": "(stereo not given) [Auranofin]", "percent viability": "32%"},
      {"smiles": "C[C@@H]1C(=O)O[C@H]2C[C@@]34[C@H]5C[C@@H](C(C)(C)C)[C@]36[C@@H](OC(=O)[C@@H]6O)O[C@@]4(C(=O)O5)[C@]21O", "note": "[Ginkgolide A]", "percent viability": "130%"},
      {"smiles": "C[C@@H]1C[C@H]2[C@@H]3C[C@H](F)C4=CC(=O)C=C[C@]4(C)[C@@]3(F)[C@@H](O)C[C@]2(C)[C@@]1(O)C(=O)COC(=O)C(C)(C)C", "note": "[Locorten]", "percent viability": "216%"},
      {"smiles": "CCC(=O)O[C@@H](O[P@](=O)(CCCCc1ccccc1)CC(=O)N1C[C@H](C2CCCCC2)C[C@H]1C(=O)O)C(C)C", "note": "[Fosinopril]", "percent viability": "372%"},
      {"smiles": "CC(C)(O)c1ccccc1CC[C@@H](SCC1(CC(=O)O)CC1)c1cccc(/C=C/c2ccc3ccc(Cl)cc3n2)c1", "note": "[montelukast]", "percent viability": "227% and 310%"},
      {"smiles": "Nc1ncn([C@@H]2O[C@H](CO)[C@@H](O)[C@H]2O)c(=O)n1", "note": "[azacitidine]", "percent viability": "14.1%"}
    ]}
  ]
}
